According to PMC12420808:
These are yes or no findings as the source states them, for the method shown. Binding seen in cells or lysates may run through a third protein. Some results given as binding are weak or reduced against the parent protein; the word gives no strength. For part of these data: Where a sequence is shown, tags or fusion partners need not be part of it.

The chains behind the UniProt entries cited, without tags or fusion partners.
UniProt O35134: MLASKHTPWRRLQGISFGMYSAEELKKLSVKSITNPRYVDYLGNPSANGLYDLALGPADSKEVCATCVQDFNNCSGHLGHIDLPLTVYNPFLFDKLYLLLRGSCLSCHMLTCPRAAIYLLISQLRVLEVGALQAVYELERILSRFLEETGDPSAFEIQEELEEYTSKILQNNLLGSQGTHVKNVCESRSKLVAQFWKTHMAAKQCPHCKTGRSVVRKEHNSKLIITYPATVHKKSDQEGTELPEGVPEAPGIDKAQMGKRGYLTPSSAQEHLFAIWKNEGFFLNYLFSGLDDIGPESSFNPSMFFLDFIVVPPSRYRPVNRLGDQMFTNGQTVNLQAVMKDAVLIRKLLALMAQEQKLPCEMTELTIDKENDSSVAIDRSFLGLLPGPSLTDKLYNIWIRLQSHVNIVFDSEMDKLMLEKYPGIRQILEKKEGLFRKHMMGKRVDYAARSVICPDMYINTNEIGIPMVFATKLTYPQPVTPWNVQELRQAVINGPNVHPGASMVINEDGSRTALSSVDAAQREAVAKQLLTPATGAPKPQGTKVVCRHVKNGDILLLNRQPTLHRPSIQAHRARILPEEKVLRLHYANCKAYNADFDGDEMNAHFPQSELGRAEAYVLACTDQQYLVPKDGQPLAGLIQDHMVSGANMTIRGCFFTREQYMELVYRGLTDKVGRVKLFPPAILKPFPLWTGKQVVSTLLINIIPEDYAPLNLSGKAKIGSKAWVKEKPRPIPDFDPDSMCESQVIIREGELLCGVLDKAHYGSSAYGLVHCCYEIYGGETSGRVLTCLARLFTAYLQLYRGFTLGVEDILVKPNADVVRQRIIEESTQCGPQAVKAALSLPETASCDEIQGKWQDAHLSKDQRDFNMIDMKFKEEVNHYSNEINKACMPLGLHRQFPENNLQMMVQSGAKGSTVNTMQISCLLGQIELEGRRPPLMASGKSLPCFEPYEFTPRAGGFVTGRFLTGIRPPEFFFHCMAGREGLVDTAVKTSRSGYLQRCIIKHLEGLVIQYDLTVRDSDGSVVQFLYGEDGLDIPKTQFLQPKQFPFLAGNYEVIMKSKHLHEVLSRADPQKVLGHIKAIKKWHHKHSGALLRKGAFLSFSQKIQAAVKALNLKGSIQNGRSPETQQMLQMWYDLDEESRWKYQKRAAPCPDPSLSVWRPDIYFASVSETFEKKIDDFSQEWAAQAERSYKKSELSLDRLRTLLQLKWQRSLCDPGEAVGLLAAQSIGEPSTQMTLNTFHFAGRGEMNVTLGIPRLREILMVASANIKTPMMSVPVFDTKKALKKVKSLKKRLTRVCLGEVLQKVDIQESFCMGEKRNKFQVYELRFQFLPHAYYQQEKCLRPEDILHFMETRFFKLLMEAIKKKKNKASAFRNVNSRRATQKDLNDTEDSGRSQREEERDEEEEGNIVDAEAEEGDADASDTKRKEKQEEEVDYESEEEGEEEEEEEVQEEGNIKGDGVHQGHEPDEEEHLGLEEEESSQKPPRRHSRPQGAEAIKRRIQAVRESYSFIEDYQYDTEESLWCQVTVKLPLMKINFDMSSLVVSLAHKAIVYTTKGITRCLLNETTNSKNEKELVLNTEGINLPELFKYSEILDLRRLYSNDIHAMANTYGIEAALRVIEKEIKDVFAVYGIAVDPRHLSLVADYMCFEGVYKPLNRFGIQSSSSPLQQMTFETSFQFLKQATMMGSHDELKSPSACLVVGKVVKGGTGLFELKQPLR
UniProt P09405: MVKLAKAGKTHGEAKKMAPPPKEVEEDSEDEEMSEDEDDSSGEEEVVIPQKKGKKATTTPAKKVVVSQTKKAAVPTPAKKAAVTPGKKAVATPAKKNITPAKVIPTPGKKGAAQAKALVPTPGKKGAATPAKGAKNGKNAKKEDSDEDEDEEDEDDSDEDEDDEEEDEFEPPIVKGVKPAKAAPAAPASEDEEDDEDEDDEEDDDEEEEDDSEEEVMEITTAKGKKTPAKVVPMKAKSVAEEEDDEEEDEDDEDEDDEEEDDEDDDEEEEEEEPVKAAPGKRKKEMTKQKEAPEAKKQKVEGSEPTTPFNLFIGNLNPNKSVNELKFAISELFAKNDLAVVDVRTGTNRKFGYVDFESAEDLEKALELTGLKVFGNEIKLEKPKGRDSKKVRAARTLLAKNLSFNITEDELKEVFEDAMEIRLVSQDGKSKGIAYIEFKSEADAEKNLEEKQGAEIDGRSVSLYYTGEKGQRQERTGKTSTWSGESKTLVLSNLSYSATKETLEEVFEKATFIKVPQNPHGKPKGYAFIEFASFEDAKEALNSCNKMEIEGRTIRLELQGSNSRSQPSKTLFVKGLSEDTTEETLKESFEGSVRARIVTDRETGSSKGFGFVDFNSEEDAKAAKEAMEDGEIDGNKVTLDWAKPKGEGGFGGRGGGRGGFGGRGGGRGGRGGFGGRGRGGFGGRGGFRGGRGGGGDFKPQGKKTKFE

How the values were obtained:
[1] = molecular target: T1, Kin17 (endogenous, mouse) (mouse (endogenous in neurospheres and cortex)) (UniProt Q8K339); assay: co-IP; endogenous proteins of the cortex of WT mice at E16.5; anti-Kin17 or anti-NCL antibody on protein A/G magnetic beads; immunoblot
T1 sequence: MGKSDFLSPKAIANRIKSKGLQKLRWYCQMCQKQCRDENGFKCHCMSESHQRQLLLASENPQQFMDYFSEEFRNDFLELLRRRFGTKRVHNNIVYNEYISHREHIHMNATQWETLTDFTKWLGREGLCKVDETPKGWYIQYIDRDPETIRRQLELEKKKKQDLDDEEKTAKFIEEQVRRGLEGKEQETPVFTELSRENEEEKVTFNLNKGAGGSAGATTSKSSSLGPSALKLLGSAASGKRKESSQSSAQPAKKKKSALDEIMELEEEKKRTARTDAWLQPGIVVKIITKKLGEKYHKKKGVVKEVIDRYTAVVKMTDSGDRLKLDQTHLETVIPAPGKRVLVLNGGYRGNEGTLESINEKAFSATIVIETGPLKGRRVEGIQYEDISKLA

[2] = molecular target: T1, Kin17 (endogenous, mouse) (mouse (endogenous in neurospheres and cortex)); assay: co-IP; endogenous proteins of mouse neurospheres; cells crosslinked with 0.75% formaldehyde, lysed (10 mM Tris-HCl pH 8.0, 1 mM EDTA, 10% glycerol, 0.5% NP-40, 0.25% Triton X-100), sonicated; antibody (anti-Kin17, anti-NCL or anti-Polr1a) on protein A/G magnetic beads, overnight 4 °C; immunoblot; in one experiment lysates treated with RNase A or control solvent
[3] = molecular target: Polr1a (endogenous, mouse) (mouse (endogenous in neurospheres)) (UniProt O35134); assay: as above
[4] = molecular target: T2, HA-Kin17 (in 293T cells) (mouse) (UniProt Q8K339); assay: co-IP; 293T cells co-transfected with HA-Kin17 and Flag-NCL; IP with anti-HA and blot with anti-Flag, or IP with anti-Flag and blot with anti-HA; cells crosslinked with 0.75% formaldehyde before lysis
T2 sequence: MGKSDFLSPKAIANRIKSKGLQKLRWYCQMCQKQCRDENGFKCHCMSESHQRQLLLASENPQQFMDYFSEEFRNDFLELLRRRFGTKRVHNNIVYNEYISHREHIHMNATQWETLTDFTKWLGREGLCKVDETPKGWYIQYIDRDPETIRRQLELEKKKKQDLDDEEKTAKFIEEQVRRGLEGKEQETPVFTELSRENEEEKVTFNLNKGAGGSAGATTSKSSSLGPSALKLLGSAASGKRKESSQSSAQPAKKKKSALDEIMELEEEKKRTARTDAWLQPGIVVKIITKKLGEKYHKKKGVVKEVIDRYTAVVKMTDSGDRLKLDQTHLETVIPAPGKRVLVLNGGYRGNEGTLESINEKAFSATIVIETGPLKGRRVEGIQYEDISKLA

[5] = molecular target: Nucleolin (NCL) (endogenous, mouse) (mouse (endogenous in neurospheres and cortex)) (UniProt P09405); assay: co-IP; endogenous proteins of the cortex of WT mice at E16.5; anti-Kin17 or anti-NCL antibody on protein A/G magnetic beads; immunoblot
[6] = molecular target: Nucleolin (NCL) (endogenous, mouse) (mouse (endogenous in neurospheres and cortex)) (UniProt P09405); assay: co-IP; endogenous proteins of mouse neurospheres; cells crosslinked with 0.75% formaldehyde, lysed (10 mM Tris-HCl pH 8.0, 1 mM EDTA, 10% glycerol, 0.5% NP-40, 0.25% Triton X-100), sonicated; antibody (anti-Kin17, anti-NCL or anti-Polr1a) on protein A/G magnetic beads, overnight 4 °C; immunoblot; in one experiment lysates treated with RNase A or control solvent
[7] = molecular target: T3, Flag tagged Prmt7 (mouse) (UniProt Q922X9); assay: co-IP; N2a cells transfected with HA-tagged WT Kin17 or R36K mutant along with Flag tagged Prmt7; IP with anti-Flag, blot with anti-HA
T3 sequence: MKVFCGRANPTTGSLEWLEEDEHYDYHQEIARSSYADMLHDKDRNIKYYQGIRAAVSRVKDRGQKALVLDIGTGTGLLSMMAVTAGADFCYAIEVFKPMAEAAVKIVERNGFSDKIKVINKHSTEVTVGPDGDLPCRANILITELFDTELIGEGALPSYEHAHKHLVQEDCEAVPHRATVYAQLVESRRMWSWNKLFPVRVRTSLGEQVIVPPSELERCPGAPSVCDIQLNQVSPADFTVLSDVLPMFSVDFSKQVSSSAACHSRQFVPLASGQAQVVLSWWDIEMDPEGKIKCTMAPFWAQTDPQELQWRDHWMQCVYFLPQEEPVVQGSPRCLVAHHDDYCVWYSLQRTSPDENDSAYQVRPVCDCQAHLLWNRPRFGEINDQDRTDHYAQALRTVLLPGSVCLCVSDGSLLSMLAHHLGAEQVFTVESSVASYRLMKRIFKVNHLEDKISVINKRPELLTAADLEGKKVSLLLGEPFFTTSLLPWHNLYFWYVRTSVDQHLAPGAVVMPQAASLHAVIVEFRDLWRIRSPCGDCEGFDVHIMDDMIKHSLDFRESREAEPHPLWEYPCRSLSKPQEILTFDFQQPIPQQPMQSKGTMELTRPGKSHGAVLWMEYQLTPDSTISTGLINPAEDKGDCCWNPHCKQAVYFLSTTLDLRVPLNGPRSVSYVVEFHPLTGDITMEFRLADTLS

[8] = molecular target: Full-length Flag-NCL (mouse) (UniProt P09405); assay: co-IP; 293T cells co-transfected with HA-Kin17 and Flag-NCL; IP with anti-HA and blot with anti-Flag, or IP with anti-Flag and blot with anti-HA; cells crosslinked with 0.75% formaldehyde before lysis

Nucleolin (NCL) (endogenous, mouse) (from UniProt P09405 1-707)
binding [1]: binds | binding [2]: binds | binding [3]: binds

Full-length Flag-NCL (from UniProt P09405 1-707)
binding [4]: binds

B1: Kin17 (endogenous, mouse) (protein, UniProt Q8K339 1-391)
chain: MGKSDFLSPKAIANRIKSKGLQKLRWYCQMCQKQCRDENGFKCHCMSESHQRQLLLASENPQQFMDYFSEEFRNDFLELLRRRFGTKRVHNNIVYNEYISHREHIHMNATQWETLTDFTKWLGREGLCKVDETPKGWYIQYIDRDPETIRRQLELEKKKKQDLDDEEKTAKFIEEQVRRGLEGKEQETPVFTELSRENEEEKVTFNLNKGAGGSAGATTSKSSSLGPSALKLLGSAASGKRKESSQSSAQPAKKKKSALDEIMELEEEKKRTARTDAWLQPGIVVKIITKKLGEKYHKKKGVVKEVIDRYTAVVKMTDSGDRLKLDQTHLETVIPAPGKRVLVLNGGYRGNEGTLESINEKAFSATIVIETGPLKGRRVEGIQYEDISKLA
binding [5]: binds | binding [6]: binds | binding [3]: binds

B2: HA-tagged WT Kin17 (in N2a cells) (protein, UniProt Q8K339 1-391)
chain: MGKSDFLSPKAIANRIKSKGLQKLRWYCQMCQKQCRDENGFKCHCMSESHQRQLLLASENPQQFMDYFSEEFRNDFLELLRRRFGTKRVHNNIVYNEYISHREHIHMNATQWETLTDFTKWLGREGLCKVDETPKGWYIQYIDRDPETIRRQLELEKKKKQDLDDEEKTAKFIEEQVRRGLEGKEQETPVFTELSRENEEEKVTFNLNKGAGGSAGATTSKSSSLGPSALKLLGSAASGKRKESSQSSAQPAKKKKSALDEIMELEEEKKRTARTDAWLQPGIVVKIITKKLGEKYHKKKGVVKEVIDRYTAVVKMTDSGDRLKLDQTHLETVIPAPGKRVLVLNGGYRGNEGTLESINEKAFSATIVIETGPLKGRRVEGIQYEDISKLA
binding [7]: binds

B3: HA-Kin17 (in 293T cells) (protein, UniProt Q8K339 1-391)
chain: MGKSDFLSPKAIANRIKSKGLQKLRWYCQMCQKQCRDENGFKCHCMSESHQRQLLLASENPQQFMDYFSEEFRNDFLELLRRRFGTKRVHNNIVYNEYISHREHIHMNATQWETLTDFTKWLGREGLCKVDETPKGWYIQYIDRDPETIRRQLELEKKKKQDLDDEEKTAKFIEEQVRRGLEGKEQETPVFTELSRENEEEKVTFNLNKGAGGSAGATTSKSSSLGPSALKLLGSAASGKRKESSQSSAQPAKKKKSALDEIMELEEEKKRTARTDAWLQPGIVVKIITKKLGEKYHKKKGVVKEVIDRYTAVVKMTDSGDRLKLDQTHLETVIPAPGKRVLVLNGGYRGNEGTLESINEKAFSATIVIETGPLKGRRVEGIQYEDISKLA
binding [8]: binds
